# Laboratory results published in the supplement of paper PMC8728848.
# This is one part of the list.
# B1: Protein L(A-C2) (Finegoldia magna), Q51912 (protein)
# chain: ADEPIDLEKLEEKRDKENVGNLPKFDNEVKDGSENPMAKYPDFDDEASTRFETENNEFEEKKVVSDNFFDQSEHPFVENKEETPETPETDSEEEVTIKANLIFANGSTQTAEFKGTFEKATSEAYAYADTLKKDNGEYTVDVADKGYTLNIKFAGKEKTPEEPKEEVTIKANLIYADGKTQTAEFKGTFEEATAEAYRYADALKKDNGEYTVDVADKGYTLNIKFAGKEKTPEEPKEEVTIKANLIYADGKTQTAEFKGTFEEATAEAYRYADLLAKENGKYTVDVADKGYTLNIKFAGKEKTPEEPKEEVTIKANLIYADGKTQTAEFKGTFAEATAEAYRYADLLAKENGKYTADLEDGGYTINIRFAGKKVDEKPEEKEQVTIKENIYFEDGTVQTATFKGTFAEATAEAYRYADLLSKEHGKYTADLEDGGYTINIRFAGKEEPEETPEKPEVQDGYASYEEAEAAAKEALKNDDVNKSYTIRQGADGRYYYVLSPVEAEEEKPEAQNGYATYEEAEAAAKKALENDPINKSYSIRQGADGRYYYVLSPVEAE
# How the values were obtained:
# Experiment in all cases: glycan array binding signal (z-score within array); higher = stronger binding
# Conditions in all cases: glycan notation: IUPAC condensed, linker removed
# [1] = target: Neu5Ac(a2-6)Gal(b1-4)GlcNAc(b1-2)Man(a1-3)[Man(a1-6)]Man(b1-4)GlcNAc(b1-4)GlcNAc
# In short: (§1)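 Arrays were curated from the Consortium for Functional Glycomics database, 3228 in total, and kept only where the protein sequence was available. Binding is expressed as a within-array Z-score. This score was averaged across arrays of the same protein sequence at different concentrations or buffers and across linkers, and negative values can be read as non-binding.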
# [2] = target: Neu5Ac(a2-6)Gal(b1-4)GlcNAc(b1-2)Man(a1-3)[Neu5Ac(a2-3)Gal(b1-4)GlcNAc(b1-2)Man(a1-6)]Man(b1-4)GlcNAc(b1-4)GlcNAc
# In short: as §1
# [3] = target: Neu5Ac(a2-6)Gal(b1-4)GlcNAc(b1-2)Man(a1-3)[Neu5Ac(a2-6)Gal(b1-4)GlcNAc(b1-2)Man(a1-6)]Man(b1-4)GlcNAc(b1-4)GlcNAc
# In short: as §1
# [4] = target: Neu5Ac(a2-6)Gal(b1-4)GlcNAc(b1-2)Man(a1-3)[Neu5Ac(a2-6)Gal(b1-4)GlcNAc(b1-2)Man(a1-6)]Man(b1-4)GlcNAc(b1-4)[Fuc(a1-6)]GlcNAc
# In short: as §1
# [5] = target: Neu5Ac(a2-6)Gal(b1-4)GlcNAc(b1-2)Man(a1-6)Man(b1-4)GlcNAc(b1-4)GlcNAc
# In short: as §1
# [6] = target: Neu5Ac(a2-6)Gal(b1-4)GlcNAc(b1-2)Man(a1-6)[Gal(b1-4)GlcNAc(b1-2)Man(a1-3)]Man(b1-4)GlcNAc(b1-4)GlcNAc
# In short: as §1
# [7] = target: Neu5Ac(a2-6)Gal(b1-4)GlcNAc(b1-2)Man(a1-6)[GlcNAc(b1-2)Man(a1-3)]Man(b1-4)GlcNAc(b1-4)GlcNAc
# In short: as §1
# [8] = target: Neu5Ac(a2-6)Gal(b1-4)GlcNAc(b1-2)Man(a1-6)[Man(a1-3)]Man(b1-4)GlcNAc(b1-4)GlcNAc
# In short: as §1
# [9] = target: Neu5Ac(a2-6)Gal(b1-4)GlcNAc(b1-2)[Neu5Ac(a2-6)Gal(b1-4)GlcNAc(b1-4)]Man(a1-3)[GlcNAc(b1-4)][Neu5Ac(a2-6)Gal(b1-4)GlcNAc(b1-2)[Neu5Ac(a2-6)Gal(b1-4)GlcNAc(b1-6)]Man(a1-6)]Man(b1-4)GlcNAc(b1-4)GlcNAc
# In short: as §1
# [10] = target: Neu5Ac(a2-6)Gal(b1-4)GlcNAc(b1-2)[Neu5Ac(a2-6)Gal(b1-4)GlcNAc(b1-4)]Man(a1-3)[GlcNAc(b1-4)][Neu5Ac(a2-6)Gal(b1-4)GlcNAc(b1-4)Man(a1-6)]Man(b1-4)GlcNAc(b1-4)GlcNAc
# In short: as §1
# [11] = target: Neu5Ac(a2-6)Gal(b1-4)GlcNAc(b1-2)[Neu5Ac(a2-6)Gal(b1-4)GlcNAc(b1-6)]Man(a1-6)[Neu5Ac(a2-6)Gal(b1-4)GlcNAc(b1-2)Man(a1-3)][GlcNAc(b1-4)]Man(b1-4)GlcNAc(b1-4)GlcNAc
# In short: as §1
# [12] = target: Neu5Ac(a2-6)Gal(b1-4)GlcNAc(b1-3)Gal(b1-3)GlcNAc
# In short: as §1
# [13] = target: Neu5Ac(a2-6)Gal(b1-4)GlcNAc(b1-3)Gal(b1-4)GlcNAc
# In short: as §1
# [14] = target: Neu5Ac(a2-6)Gal(b1-4)GlcNAc(b1-3)Gal(b1-4)GlcNAc(b1-2)Man(a1-3)[Neu5Ac(a2-6)Gal(b1-4)GlcNAc(b1-3)Gal(b1-4)GlcNAc(b1-2)Man(a1-6)]GalNAc
# In short: as §1
# [15] = target: Neu5Ac(a2-6)Gal(b1-4)GlcNAc(b1-3)Gal(b1-4)GlcNAc(b1-3)Gal(b1-4)GlcNAc
# In short: as §1
# [16] = target: Neu5Ac(a2-6)Gal(b1-4)GlcNAc(b1-3)Gal(b1-4)GlcNAc(b1-3)Gal(b1-4)GlcNAc(b1-2)Man(a1-3)[Neu5Ac(a2-6)Gal(b1-4)GlcNAc(b1-3)Gal(b1-4)GlcNAc(b1-3)Gal(b1-4)GlcNAc(b1-2)Man(a1-6)]GalNAc
# In short: as §1
# [17] = target: Neu5Ac(a2-6)Gal(b1-4)GlcNAc(b1-3)Gal(b1-4)GlcNAc(b1-3)GalNAc
# In short: as §1
# [18] = target: Neu5Ac(a2-6)Gal(b1-4)GlcNAc(b1-3)Gal(b1-4)GlcNAc(b1-3)[Neu5Ac(a2-6)Gal(b1-4)GlcNAc(b1-3)Gal(b1-4)GlcNAc(b1-6)]GalNAc
# In short: as §1
# [19] = target: Neu5Ac(a2-6)Gal(b1-4)GlcNAc(b1-3)Gal(b1-4)GlcNAc(b1-6)[Gal(b1-3)]GalNAc
# In short: as §1
# [20] = target: Neu5Ac(a2-6)Gal(b1-4)GlcNAc(b1-3)Gal(b1-4)[Fuc(a1-3)]GlcNAc(b1-3)Gal(b1-4)[Fuc(a1-3)]GlcNAc
# In short: as §1
# [21] = target: Neu5Ac(a2-6)Gal(b1-4)GlcNAc(b1-3)GalNAc
# In short: as §1
# [22] = target: Neu5Ac(a2-6)Gal(b1-4)GlcNAc(b1-3)[Neu5Ac(a2-6)Gal(b1-4)GlcNAc(b1-6)]GalNAc
# In short: as §1
# [23] = target: Neu5Ac(a2-6)Gal(b1-4)GlcNAc(b1-6)GalNAc
# In short: as §1
# [24] = target: Neu5Ac(a2-6)Gal(b1-4)GlcNAc(b1-6)[Gal(b1-3)GlcNAc(b1-3)]Gal(b1-4)Glc
# In short: as §1
# [25] = target: Neu5Ac(a2-6)Gal(b1-4)GlcNAc(b1-6)[Gal(b1-3)]GalNAc
# In short: as §1
# [26] = target: Neu5Ac(a2-6)Gal(b1-4)GlcNAc6S
# In short: as §1
# Neu5Ac(a2-6)GalNAc = target: Neu5Ac(a2-6)GalNAc
# In short: as §1
# [27] = target: Neu5Ac(a2-6)GalNAc(b1-4)GlcNAc
# In short: as §1
# [28] = target: Neu5Ac(a2-6)GalNAc(b1-4)GlcNAc6S
# In short: as §1
# [29] = target: Neu5Ac(a2-6)GlcNAc(b1-4)GlcNAc
# In short: as §1
binder,measurement,setting,value
B1,glycan array binding signal (z-score),[1],-1.23
same,glycan array binding signal (z-score),[2],-0.24
same,glycan array binding signal (z-score),[3],-0.037
same,glycan array binding signal (z-score),[4],0.419
same,glycan array binding signal (z-score),[5],-0.51
same,glycan array binding signal (z-score),[6],-0.288
same,glycan array binding signal (z-score),[7],-0.74
same,glycan array binding signal (z-score),[8],0.298
same,glycan array binding signal (z-score),[9],0.198
same,glycan array binding signal (z-score),[10],-0.222
same,glycan array binding signal (z-score),[11],-0.594
same,glycan array binding signal (z-score),[12],-0.752
same,glycan array binding signal (z-score),[13],0.159
same,glycan array binding signal (z-score),[14],1.16
same,glycan array binding signal (z-score),[15],-0.292
same,glycan array binding signal (z-score),[16],1.97
same,glycan array binding signal (z-score),[17],-0.032
same,glycan array binding signal (z-score),[18],3.89
same,glycan array binding signal (z-score),[19],0.761
same,glycan array binding signal (z-score),[20],0.819
same,glycan array binding signal (z-score),[21],0.898
same,glycan array binding signal (z-score),[22],-0.107
same,glycan array binding signal (z-score),[23],1.66
same,glycan array binding signal (z-score),[24],-0.414
same,glycan array binding signal (z-score),[25],0.12
same,glycan array binding signal (z-score),[26],-0.725
same,glycan array binding signal (z-score),Neu5Ac(a2-6)GalNAc,-0.512
same,glycan array binding signal (z-score),[27],-0.287
same,glycan array binding signal (z-score),[28],-0.457
same,glycan array binding signal (z-score),[29],-0.694

# A portion of the results above, for reference:
binder,measurement,setting,value
B1,glycan array binding signal (z-score),[12],-0.752
same,glycan array binding signal (z-score),[13],0.159
